Some of the results follow. A value given as a limit tells only on which side of the number the result lay.

Sequences and labels used below:
B1: il2ra_site2_2erj_normal_mot_HHH_b1_00612_000000025_0001_42_56_H_._HHH_b1_01371_af2_0001_0000700020_0000001_0 (protein)
chain: SSSSSDAWELAARASIEALELFKEGNPEEARRVLEEALEEVEELNNEAAARYLELALRELSSSSS
B2: il2ra_site2_3nfp_normal_mot_HHH_b1_01177_af2_000000173_0001_20_36_H_._HHH_b1_06332_0001_0000100004_0000001_0 (protein)
chain: SSSSTEELQRAVEYLIIAVELWGNPEVVEEAEELLEEAEKKKDKRLFSEAVHLLYRVAEELSSSS
B3: il2ra_site2_3nfp_sap_14_mot_HHH_b1_06589_000000230_0001_37_50_H_._HHH_b2_03910_0001_0000400016_0000001_0_0001_af2pred_0001_1_af2pred_swapped (protein)
chain: SSSSDEEEAEKALEQAERVLENGNPEEAEKLLKRAALLASELGDHELFARIVELFEKVRRRSSSS
B4: il2ra_site2_3nfp_normal_mot_HHH_b1_00086_000000221_0001_38_54_H_._HHH_b2_06926_0001_0000200007_0000001_0 (protein)
chain: SSSSDHSEEYLRAALLLLEEAVEEGDREAARKHTKLARQLAESNRDEEILEELERLIEELESSSS
B5: il2ra_site2_2erj_normal_mot_HHH_b2_05804_000000098_0001_44_58_H_._HHH_b2_07773_af2_0001_0000500032_0000001_0 (protein)
chain: SSSSSDRKEAWEKVAEILAKAAHIRDEEEVEELLERAERVAEENNDEFLRRYVEFARRAFSSSSS
B6: il2ra_site2_2erj_sap_18_mot_HHH_b1_03924_000000147_0001_1_20_H_._d5df4b299ca3074c1b4ca371b633e360_0001_0001_0000200015_0000001_0_0001 (protein)
chain: SSSSDEELRELFRLAVELSHLVSEGDEEEFERLLEEVKRIAKELNSEAVEKILESLERLIKSSSS
B7: il2ra_site2_2erj_sap_18_mot_HHH_b2_08311_000000098_0001_42_56_H_._HHH_b2_02486_0001_0000400050_0000001_0_0001 (protein)
chain: SSSSDDREIERFRELFEELRRLFKEGDREEFEEVLEELEERAKEEGDPRLEVLVRFAKSALSSSS
B8: il2ra_site1_2b5i_normal_mot_HHH_b1_02271_000000068_0001_1_16_H_._HHH_b2_01721_af2_0001_0000300031_0000001_0_af2pred_dldesign_0_af2pred (protein)
chain: SSSSSSSVDERIEELIEQAKKEKDRRKALELLEEAHKLASAEGREDLLDEIEKLAKEISSSSSSS
B9: il2ra_site1_1z92_sap_11_mot_HHH_b2_07953_000000091_0001_18_34_H_._77b064c75c6d617534c80658c3c44cb1_0001_0001_0000300014_0000001_0_0001 (protein)
chain: SSSSDDEEWMRLAREVLRLLENGNPEEAKEVLEELKRLAEELGNRIAREMAERLEEVIEGSSSSS
B10: il2ra_site2_3nfp_sap_19_mot_HHH_b2_07840_000000026_0001_18_34_H_._HHH_b2_02633_af2_0002_0000100002_0000001_0_0001 (protein)
chain: SSSSSEEEEEVRRLIEEAEQLIKEGNPEEAEKVLLRAALLAWELNDTELWMAIAELILRLSSSSS
B11: il2ra_site2_3nfp_normal_mot_HHH_b2_00895_af2_000000099_0001_38_52_H_._HHH_b2_02024_0001_0000700036_0000001_0 (protein)
chain: SSSSDEELALEYAALAAKLHNDPELLEELEEAIEEAERHNDPRLREEALRIASELALKIATSSSS
B12: il2ra_site2_3nfp_normal_mot_HHH_b1_06797_000000164_0001_24_40_H_._HHH_b2_08062_0001_0000500023_0000001_0 (protein)
chain: SSSSSKAEEYLEAVVLVIELALEAGDRESARSSLEAAEQLAELLGDEELLERLEELKELVNSSSS
B13: il2ra_site1_2b5i_sap_24_mot_2cbe48e66a1f39b3fed734b245ab0a04_0001_000000015_0001_17_31_H_._HHH_b2_02027_0001_0000100002_0000001_0_0001_af2pred_dldesign_0_af2pre … (protein)
chain: SSSSDEAFDKVDELYKKALELRRQGKKEEAKKTLEEALAIAKEAGLEKIVAELQYLLEKLSSSSS
B14: il2ra_site2_2erj_sap_23_mot_HHH_b1_00071_af2_000000225_0001_40_56_H_._HHH_b2_05421_af2_0002_0000600047_0000001_0_0001 (protein)
chain: SSSDEEEKVKELIEEAEKLLEEGNPEEALEVLRRAATLAFELNDFELFSAIAELLEAIARASSSS
B15: il2ra_site2_3nfp_sap_23_mot_ems_3hM_287_af2_000000177_0001_46_64_H_._HHH_b2_01015_af2_0001_0000600024_0000001_0_0001 (protein)
chain: SSSSDEQVLEVVLEYAEAVAALRGDEELLERIEELAEEYKEEGDPRYVREVARLLAERATSSSSS
B16: il2ra_site2_2erj_sap_21_mot_HHH_b2_02303_000000050_0001_43_56_H_._HHH_b1_05172_0001_0000200005_0000001_0_0001_af2pred_0001_af2pred (protein)
chain: SSSSSSNLVQEWVRLLLEEAEKIPDPEERKRWLELAELAARRWNDEEAEEEVERVQEELGSSSSS
B17: il2ra_site1_1z92_normal_mot_c9a8daa1dfea21d1414aecde54be4f54_0001_1_af2_000000024_0001_32_46_H_._HHH_b2_06162_af2_0001_0000100010_0000001_0_af2pred_0001_af2pred … (protein)
chain: SSSSDLEEEAEKIVEEVVKKLGLSEEDREALEYDAEQALRAGISERAVRRVLERIAKLLRSSSSS
B18: il2ra_site1_1z92_sap_13_mot_HHH_b2_05172_af2_000000284_0001_1_18_H_._HHH_b2_08220_0001_0000700079_0000001_0_0001 (protein)
chain: SSSSSDESHRLAIEAMKRLLKLLKNGNEEEAERLLEEVRRELEELGDPTAVEDLENYARYASSSS
B19: il2ra_site1_2b5i_sap_21_mot_2716ad6c8bc1fbd6d66602f60a7d4a27_0001_af2_000000180_0001_34_48_H_._08fb8540337ca522751f7d88495ca23a_0001_1_0001_0000400024_0000001_0 … (protein)
chain: SSSSEEEEAAFLRRVTSAAYRLRGLGKEEAVKKVTELATKYLETKDPRYLEEIERLVEEALSSSS
B20: il2ra_site2_3nfp_normal_mot_HHH_b1_00660_af2_000000090_0001_40_57_H_._HHH_b2_00792_af2_0001_0000100007_0000001_0 (protein)
chain: SSSSDEEIEERVEELLERYERVPDPEERRKILQEAFRLAYEANDFELFALVVELREELERTSSSS
B21: il2ra_site2_3nfp_sap_15_mot_9b1ece5d1ebc94355a99c96473898622_0001_1_af2_000000184_0001_31_45_H_._e4cf1a0cdac3444faaf76a8efd5e30e5_0001_0001_0000800038_0000001_0 … (protein)
chain: SSSSSSRRMLEAAIRSLEILKERGDEERAKISVEYLRAAAALHGDEEALEFAERLLEELRSSSSS
B22: il2ra_site2_2erj_normal_mot_118502477c40609e6006f550458cdfaf_0001_af2_000000174_0001_16_29_H_._HHH_b1_02677_af2_0001_0000300009_0000001_0 (protein)
chain: SSSSDESVKAAEELAREAFERGDREELLLLLLFAELTAEASNDPELEELVEEIEQLLERLRSSSS
B23: il2ra_site2_3nfp_sap_23_mot_HHH_b2_04167_af2_000000037_0001_42_55_H_._0a54d8a7266968de9ae0346ffe2baff0_0001_af2_0001_0000100003_0000001_1_0001 (protein)
chain: SSSDEEELEKVLRQIREALEEGDEELLRELLRKAAQLVWEVNDPRLYMELAELLFEIAKKLSSSS
B24: il2ra_site1_1z92_normal_mot_01209686ea234b34325f918445e6eade_0001_af2_000000154_0001_18_33_H_._d30c92881be5d2f229e465dffc40e224_0001_af2_0001_0000300015_0000001 … (protein)
chain: DVEELLEELAEEGDPDALMALKDLRQAKELGVPPRNVLKAVLRALKKNGALTPELKEILEEVLKR

The experiment addresses il2ra, P01589. The experiment can be described thus: yeast display titration.
By apparent Kd is commonly meant the concentration giving half-maximal binding under the conditions of the assay. Regarding B1, the “apparent Kd” value is “inactive: no binding seen”.

With B2, the “apparent Kd” value was “inactive: no binding seen”.

Regarding B3, the “apparent Kd” value is “inactive: no binding seen”.

For B4, the “apparent Kd” value was “inactive: no binding seen”.

On to B5, for which the “apparent Kd” value is “inactive: no binding seen”.

B6: the “apparent Kd” value is “inactive: no binding seen”.

As for B7, the “apparent Kd” value was “inactive: no binding seen”.

B8: the “apparent Kd” value was “inactive: no binding seen”.

Turning to B9, the “apparent Kd” value is “inactive: no binding seen”.

For the molecule B10, the “apparent Kd” value is “inactive: no binding seen”.

For the molecule B11, the “apparent Kd” value was “inactive: no binding seen”.

In the case of B12, the “apparent Kd” value is “inactive: no binding seen”.

Consider B13, for which the “apparent Kd” value was “inactive: no binding seen”.

Regarding B14, the apparent Kd was inactive: > 416 nM.

Regarding B15, the “apparent Kd” value was “inactive: no binding seen”.

With B16, the “apparent Kd” value is “inactive: no binding seen”.

Consider B17, for which the “apparent Kd” value was “inactive: no binding seen”.

As to B18, the “apparent Kd” value is “inactive: no binding seen”.

B19: the “apparent Kd” value is “inactive: no binding seen”.

B20: the “apparent Kd” value is “inactive: no binding seen”.

With B21, the “apparent Kd” value is “inactive: no binding seen”.

Consider B22, for which the “apparent Kd” value is “inactive: no binding seen”.

Take B23: the “apparent Kd” value was “inactive: no binding seen”.

Turning to B24, the “apparent Kd” value is “inactive: no binding seen”.

Values taken from paper PMC10163288.
